{
  "source": "PubChem BioAssay AID1347087",
  "about": "(National Center for Advancing Translational Sciences (NCATS), 2019)",
  "note": "The shares of active, inactive and inconclusive entries below differ from those in the screen. Potencies beside an inconclusive call are fits to weak or partial responses and may not hold up. Active and inactive are the calls of the source. Calls come from the whole dose curve.",
  "data": [
    {"assay": "qHTS for Inhibitors of the Functional Ribonucleoprotein Complex (vRNP) of Lassa (LASV) Arenavirus: LASV Confirmatory Screen - GLuc reporter signal", "conditions": "LASV minigenome vRNP, Gaussia luciferase reporter; series mostly up to 53.9 µM", "values": [
      {"smiles": "COC(=O)c1nc(Cl)c(Cl)nc1N", "Potency": "active: 4.85 µM"},
      {"smiles": "Nc1nc2ccc(OC(F)(F)F)cc2s1", "Potency": "inconclusive: 17.2 µM [inhibitor, partial curve]"},
      {"smiles": "C[C@]12CC[C@@H](O)C[C@H]1CC[C@@H]1[C@H]2CC[C@]2(C)C(=O)CC[C@@H]12", "Potency": "inconclusive: 15.6 µM [inhibitor, single point]"},
      {"smiles": "Cc1cnc(NC(=O)C2=C(O)c3ccccc3S(=O)(=O)N2C)s1", "Potency": "inconclusive: 21.7 µM [inhibitor, partial curve, poor fit]"},
      {"smiles": "O=c1[nH]c2ccccc2n1C1CCN(CCCC(c2ccc(F)cc2)c2ccc(F)cc2)CC1", "Potency": "inconclusive: 7.69 µM [inhibitor, partial curve]"},
      {"smiles": "CCCCC[C@H](O)/C=C/C=C/C/C=C\\CCCC(=O)O", "activity, negative = inhibition": "inactive: 4.46% [at 0.666 µM]"},
      {"smiles": "NC(=O)N/N=C/c1ccc([N+](=O)[O-])o1", "Potency": "inconclusive: 30.6 µM [inhibitor, single point]"},
      {"smiles": "CCN(CC)C(=O)N[C@@H]1C=C2c3cccc4[nH]cc(c34)C[C@@H]2N(C)C1", "Potency": "inactive"},
      {"smiles": "Cc1cc2c(C(C)C)c(O)c(O)c(C=O)c2c(O)c1-c1c(C)cc2c(C(C)C)c(O)c(O)c(C=O)c2c1O", "Potency": "active: 9.68 µM"},
      {"smiles": "CN(C)c1ccc(O)c2c1C[C@H]1C[C@H]3[C@H](N(C)C)C(=O)C(C(N)=O)=C(O)[C@@]3(O)C(=O)C1=C2O", "Potency": "inconclusive: 24.3 µM [inhibitor, partial curve]"},
      {"smiles": "CN1C(C(=O)Nc2ccccn2)=C(O)c2ccccc2S1(=O)=O", "Potency": "inconclusive: 0.0153 µM [inhibitor, full curve, poor fit]"},
      {"smiles": "O=C(Nc1ccc(Cl)c(Cl)c1)C1CC1", "Potency": "inconclusive: 21.7 µM [inhibitor, partial curve]"},
      {"smiles": "CCC(c1ccc(O)cc1)C(CC)c1ccc(O)cc1", "note": "(stereo unspecified)", "Potency": "inconclusive: 27.3 µM [inhibitor, partial curve]"},
      {"smiles": "CC1OC(=O)[C@@H](C(C)C)NC(=O)C(C(C)C)OC(=O)[C@H](C(C)C)NC(=O)C(C)OC(=O)[C@@H](C(C)C)NC(=O)C(C(C)C)OC(=O)[C@H](C(C)C)NC(=O)C(C)OC(=O)[C@@H](C(C)C)NC(=O)C(C(C)C)OC(=O)[C@H](C(C)C)NC1=O", "note": "(stereo partly specified)", "Potency": "active: 0.153 µM"},
      {"smiles": "Cc1ccccc1-n1c(Cn2nc(-c3cccc(O)c3)c3c(N)ncnc32)nc2cccc(C)c2c1=O", "Potency": "inconclusive: 30.6 µM [inhibitor, partial curve]"},
      {"smiles": "O=C1NC(=O)/C(=C/c2ccc3nccnc3c2)S1", "Potency": "inconclusive: 21.7 µM [inhibitor, partial curve]"},
      {"smiles": "COC1=CC(=O)C[C@@H](C)[C@]12Oc1c(Cl)c(OC)cc(OC)c1C2=O", "Potency": "inconclusive: 19.3 µM [inhibitor, partial curve]"},
      {"smiles": "Cn1cc(-c2ccncc2)c(-c2ccc(OCc3ccc4ccccc4n3)cc2)n1", "Potency": "active: 24.3 µM"},
      {"smiles": "CN1CCN(C2=Nc3cc(Cl)ccc3Nc3ccccc32)CC1", "Potency": "inconclusive: 27.3 µM [inhibitor, partial curve]"},
      {"smiles": "O=C(Nc1ccccc1)Nc1ccc(-c2ccc(C(=O)[C@H]3CCC[C@H]3C(=O)O)cc2)cc1", "Potency": "inconclusive: 21.7 µM [inhibitor, partial curve, poor fit]"},
      {"smiles": "O=c1ccc2ccc(O)c(O)c2o1", "Potency": "inconclusive: 24.3 µM [inhibitor, partial curve, poor fit]"}
    ]}
  ]
}
